Laboratory results published in paper PMC7157520.
No constants are given. Whether binding was seen depends on the method and setting. In cells and extracts the contact can be indirect. Where a sequence is shown, tags or fusion partners need not be part of it.

By UniProt entry, the sequences of proteins in these tests, tags left out. Where a name states a change or a piece, a line headed by the entry shows the natural chain unless it says otherwise. Chains listed by the source or under a name are the forms on record and can include a tag or linker.
UniProt P21827: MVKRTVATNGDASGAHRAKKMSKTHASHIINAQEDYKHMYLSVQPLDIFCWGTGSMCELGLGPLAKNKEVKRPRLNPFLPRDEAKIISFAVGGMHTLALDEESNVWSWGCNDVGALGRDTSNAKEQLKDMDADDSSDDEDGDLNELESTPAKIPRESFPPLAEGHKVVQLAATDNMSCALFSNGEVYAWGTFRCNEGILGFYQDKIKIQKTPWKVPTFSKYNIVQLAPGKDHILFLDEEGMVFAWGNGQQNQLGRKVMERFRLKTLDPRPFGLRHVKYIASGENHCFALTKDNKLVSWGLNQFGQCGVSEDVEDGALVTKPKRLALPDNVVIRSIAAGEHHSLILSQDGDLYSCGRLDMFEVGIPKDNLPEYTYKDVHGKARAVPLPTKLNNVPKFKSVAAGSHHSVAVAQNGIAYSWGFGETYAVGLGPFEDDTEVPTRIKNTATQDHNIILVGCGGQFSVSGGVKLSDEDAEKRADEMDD
UniProt P11745: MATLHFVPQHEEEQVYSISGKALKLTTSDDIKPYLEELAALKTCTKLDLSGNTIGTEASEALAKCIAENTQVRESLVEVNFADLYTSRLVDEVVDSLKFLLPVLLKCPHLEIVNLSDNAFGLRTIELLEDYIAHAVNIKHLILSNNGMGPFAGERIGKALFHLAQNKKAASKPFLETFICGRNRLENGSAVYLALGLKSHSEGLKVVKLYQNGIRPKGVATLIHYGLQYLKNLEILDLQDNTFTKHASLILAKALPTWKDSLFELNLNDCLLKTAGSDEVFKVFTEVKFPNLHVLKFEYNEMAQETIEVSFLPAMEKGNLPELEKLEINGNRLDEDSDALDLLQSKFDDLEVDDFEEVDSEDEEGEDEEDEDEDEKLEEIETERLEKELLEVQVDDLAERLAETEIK
Strep-tagged RNA1-1 (P11745, form named): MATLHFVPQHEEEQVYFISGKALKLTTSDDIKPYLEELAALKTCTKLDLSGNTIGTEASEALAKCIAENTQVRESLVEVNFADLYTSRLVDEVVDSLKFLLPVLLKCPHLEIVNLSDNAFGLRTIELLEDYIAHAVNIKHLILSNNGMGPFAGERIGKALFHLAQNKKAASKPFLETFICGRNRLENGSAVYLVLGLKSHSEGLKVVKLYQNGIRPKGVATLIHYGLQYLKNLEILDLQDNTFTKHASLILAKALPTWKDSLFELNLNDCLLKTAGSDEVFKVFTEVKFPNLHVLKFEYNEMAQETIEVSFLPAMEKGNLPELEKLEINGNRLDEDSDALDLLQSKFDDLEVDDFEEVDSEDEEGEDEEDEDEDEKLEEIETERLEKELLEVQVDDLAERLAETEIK

Target: T1, FLAG-LegG1 (L. pneumophila strain Philadelphia-1) (UniProt Q5ZU32)
T1 sequence: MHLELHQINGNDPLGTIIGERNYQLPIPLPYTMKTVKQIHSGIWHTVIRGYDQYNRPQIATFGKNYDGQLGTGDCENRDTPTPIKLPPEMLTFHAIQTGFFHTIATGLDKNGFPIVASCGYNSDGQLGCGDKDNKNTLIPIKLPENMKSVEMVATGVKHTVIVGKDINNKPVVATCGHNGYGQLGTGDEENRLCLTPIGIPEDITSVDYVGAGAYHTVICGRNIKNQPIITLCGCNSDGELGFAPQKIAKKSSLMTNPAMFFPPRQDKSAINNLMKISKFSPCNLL
Experiment: co-IP

Substance	binding
Strep-PRP20 (from UniProt P21827 1-482)	no binding
Strep-tagged RNA1-1 (from UniProt P11745 1-407)	no binding
